Experimental data: PubChem BioAssay AID1508597 (Cure First, 2020)
This is a random part of the about 2,100 reagents, in one setting of the screen. 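Calls flag viability under 80% in either arm, not effects specific to rucaparib; the reference for percent is not stated.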 Entries without a mark were called inactive. A reagent listed more than once was tested more than once; the source does not tell the runs apart. No sequences are given here. Not given: the 100% reference.

Aim: 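Survival screen with siRNA in ovarian cancer cells derived from patients, with or without rucaparib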 (primary screen)
Cells: human ovarian carcinoma lines grown from tumours: OCI-P5x (papillary serous) and OCI-C5x (clear cell)
Reagent: siRNA pool against human genes, 1.25 pmol siRNA per well
Timing: 72 h or 96 h, depending on the cell culture
Treatment: rucaparib 20 µM (about IC30) or vehicle, present until read-out
Rucaparib or vehicle: Rucaparib
Cell line: OCI-P5x (serous)
Read-out: 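Luminescent ATP-based viability assay read 72 or 96 h after transfection, depending on culture, given as normalised percent viability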
Reading the numbers: viability, normalised: higher = more viable cells remaining
Active means: 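a well counts as a hit if its normalised viability is under 80 percent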
Calls: active = viability under 80%; inactive = viability 80% or more

| gene symbol | technical replicate | viability, normalised (%) |
| --- | --- | --- |
| DPF3 (double PHD fingers 3) | 1 | 74.6 (active) |
| DPF3 (double PHD fingers 3) | 2 | 72.6 (active) |
| DPF3 (double PHD fingers 3) | 3 | 85.8 |
| NRXN1 (neurexin 1) | 1 | 44.7 (active) |
| NRXN1 (neurexin 1) | 2 | 52.8 (active) |
| NRXN1 (neurexin 1) | 3 | 47.3 (active) |
| CHD6 (chromodomain helicase DNA binding protein 6) | 1 | 65 (active) |
| CHD6 (chromodomain helicase DNA binding protein 6) | 2 | 62.7 (active) |
| CHD6 (chromodomain helicase DNA binding protein 6) | 3 | 78.4 (active) |
| ARFGEF2 (ARF guanine nucleotide exchange factor 2) | 1 | 64.9 (active) |
| ARFGEF2 (ARF guanine nucleotide exchange factor 2) | 2 | 51.7 (active) |
| ARFGEF2 (ARF guanine nucleotide exchange factor 2) | 3 | 52.5 (active) |
| ITIH4 (inter-alpha-trypsin inhibitor heavy chain 4) | 1 | 83.3 |
| ITIH4 (inter-alpha-trypsin inhibitor heavy chain 4) | 2 | 80.2 |
| ITIH4 (inter-alpha-trypsin inhibitor heavy chain 4) | 3 | 77.5 (active) |
| TAF5L (TATA-box binding protein associated factor 5 like) | 1 | 57 (active) |
| TAF5L (TATA-box binding protein associated factor 5 like) | 2 | 58.2 (active) |
| TAF5L (TATA-box binding protein associated factor 5 like) | 3 | 67.5 (active) |
| DDX53 (DEAD-box helicase 53) | 1 | 50.2 (active) |
| DDX53 (DEAD-box helicase 53) | 2 | 70.5 (active) |
| DDX53 (DEAD-box helicase 53) | 3 | 52.1 (active) |
| CLDN5 (claudin 5) | 1 | 59.9 (active) |
| CLDN5 (claudin 5) | 2 | 67.3 (active) |
| CLDN5 (claudin 5) | 3 | 65.4 (active) |
| PRKAR2A | 1 | 97.7 |
| PRKAR2A | 2 | 110 |
| PRKAR2A | 3 | 101 |
| NRG1 (neuregulin 1) | 1 | 37.8 (active) |
| NRG1 (neuregulin 1) | 2 | 51.9 (active) |
| NRG1 (neuregulin 1) | 3 | 33 (active) |
| FXR2 (FMR1 autosomal homolog 2) | 1 | 56.3 (active) |
| FXR2 (FMR1 autosomal homolog 2) | 2 | 63.7 (active) |
| FXR2 (FMR1 autosomal homolog 2) | 3 | 68.3 (active) |
| MED22 (mediator complex subunit 22) | 1 | 58.2 (active) |
| MED22 (mediator complex subunit 22) | 2 | 56.8 (active) |
| MED22 (mediator complex subunit 22) | 3 | 55.5 (active) |
| DGKD (diacylglycerol kinase delta) | 1 | 89.8 |
| DGKD (diacylglycerol kinase delta) | 2 | 99.5 |
| DGKD (diacylglycerol kinase delta) | 3 | 80.5 |
| MARK2 (microtubule affinity regulating kinase 2) | 1 | 98.4 |
| MARK2 (microtubule affinity regulating kinase 2) | 2 | 103 |
| MARK2 (microtubule affinity regulating kinase 2) | 3 | 87 |
| PFKFB2 (6-phosphofructo-2-kinase/fructose-2,6-biphosphatase 2) | 1 | 44.3 (active) |
| PFKFB2 (6-phosphofructo-2-kinase/fructose-2,6-biphosphatase 2) | 2 | 59.6 (active) |
| PFKFB2 (6-phosphofructo-2-kinase/fructose-2,6-biphosphatase 2) | 3 | 44.2 (active) |
| SMC1A (structural maintenance of chromosomes 1A) | 1 | 145 |
| SMC1A (structural maintenance of chromosomes 1A) | 1 | 51.6 (active) |
| SMC1A (structural maintenance of chromosomes 1A) | 2 | 169 |
| SMC1A (structural maintenance of chromosomes 1A) | 2 | 45.8 (active) |
| SMC1A (structural maintenance of chromosomes 1A) | 3 | 153 |
| SMC1A (structural maintenance of chromosomes 1A) | 3 | 49.3 (active) |
| RIOK3 (RIO kinase 3) | 1 | 121 |
| RIOK3 (RIO kinase 3) | 2 | 96 |
| RIOK3 (RIO kinase 3) | 3 | 113 |
| GDPD2 (glycerophosphodiester phosphodiesterase domain containing 2) | 1 | 67.1 (active) |
| GDPD2 (glycerophosphodiester phosphodiesterase domain containing 2) | 2 | 76.4 (active) |
| GDPD2 (glycerophosphodiester phosphodiesterase domain containing 2) | 3 | 54.8 (active) |

Part of the list above, reformatted.
{"gene symbol": "PFKFB2 (6-phosphofructo-2-kinase/fructose-2,6-biphosphatase 2)", "technical replicate": "3", "viability, normalised (%)": "44.2 (active)"}
{"gene symbol": "SMC1A (structural maintenance of chromosomes 1A)", "technical replicate": "1", "viability, normalised (%)": 145}
{"gene symbol": "SMC1A (structural maintenance of chromosomes 1A)", "technical replicate": "1", "viability, normalised (%)": "51.6 (active)"}
{"gene symbol": "SMC1A (structural maintenance of chromosomes 1A)", "technical replicate": "2", "viability, normalised (%)": 169}
{"gene symbol": "SMC1A (structural maintenance of chromosomes 1A)", "technical replicate": "2", "viability, normalised (%)": "45.8 (active)"}
{"gene symbol": "SMC1A (structural maintenance of chromosomes 1A)", "technical replicate": "3", "viability, normalised (%)": 153}
